Measured values reported in the supplement of paper PMC12823440, “Inhibitors supercharge kinase turnover through native proteolytic circuits” (Nature, 2025).
Structures can show the parent of a compound that is named as a salt. Some of the results follow. The calls rarely recur for the same compound in another form.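 Kinases, fused to nanoluciferase, were expressed in K562 cells; luminescence was measured every 4 h from 2 to 18 h as percent of control (DMSO = 100%, positive control = 0%). A time point is decreased if signal falls significantly (2 sigma). Hits were called by the authors by a rule that is not shown; the count of time points alone does not decide it.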

The chains behind the UniProt entries cited, without tags or fusion partners. Where a name states a change or a piece, a line headed by the entry shows the natural chain unless it says otherwise.
UniProt Q15208: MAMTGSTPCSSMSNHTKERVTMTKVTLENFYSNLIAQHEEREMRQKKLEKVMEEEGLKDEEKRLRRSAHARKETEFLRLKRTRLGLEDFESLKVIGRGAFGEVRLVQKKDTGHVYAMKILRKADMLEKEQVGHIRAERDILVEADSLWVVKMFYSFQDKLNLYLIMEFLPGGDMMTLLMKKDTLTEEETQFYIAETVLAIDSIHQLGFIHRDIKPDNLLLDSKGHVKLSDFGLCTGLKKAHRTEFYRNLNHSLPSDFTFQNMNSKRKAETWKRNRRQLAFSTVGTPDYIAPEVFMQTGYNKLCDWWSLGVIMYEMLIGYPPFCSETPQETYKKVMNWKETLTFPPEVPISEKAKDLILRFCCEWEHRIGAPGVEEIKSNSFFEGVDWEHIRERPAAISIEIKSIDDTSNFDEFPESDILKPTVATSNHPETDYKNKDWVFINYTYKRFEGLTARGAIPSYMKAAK
UniProt P42680: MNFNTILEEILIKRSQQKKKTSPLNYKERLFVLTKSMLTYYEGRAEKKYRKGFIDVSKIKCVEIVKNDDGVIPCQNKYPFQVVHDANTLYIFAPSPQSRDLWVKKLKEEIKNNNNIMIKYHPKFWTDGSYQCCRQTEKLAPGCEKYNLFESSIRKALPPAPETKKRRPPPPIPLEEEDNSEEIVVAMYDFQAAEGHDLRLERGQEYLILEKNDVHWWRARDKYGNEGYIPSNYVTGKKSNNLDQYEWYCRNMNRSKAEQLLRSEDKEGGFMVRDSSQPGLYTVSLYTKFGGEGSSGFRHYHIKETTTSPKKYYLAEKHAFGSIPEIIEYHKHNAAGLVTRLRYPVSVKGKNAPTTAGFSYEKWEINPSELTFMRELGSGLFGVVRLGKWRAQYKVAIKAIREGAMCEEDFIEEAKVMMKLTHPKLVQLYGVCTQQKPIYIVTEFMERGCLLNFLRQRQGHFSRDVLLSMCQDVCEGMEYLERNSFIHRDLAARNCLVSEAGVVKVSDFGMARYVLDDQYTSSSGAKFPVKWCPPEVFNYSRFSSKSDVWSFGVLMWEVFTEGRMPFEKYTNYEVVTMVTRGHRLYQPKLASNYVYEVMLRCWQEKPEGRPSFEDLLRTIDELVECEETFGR
UniProt P29597: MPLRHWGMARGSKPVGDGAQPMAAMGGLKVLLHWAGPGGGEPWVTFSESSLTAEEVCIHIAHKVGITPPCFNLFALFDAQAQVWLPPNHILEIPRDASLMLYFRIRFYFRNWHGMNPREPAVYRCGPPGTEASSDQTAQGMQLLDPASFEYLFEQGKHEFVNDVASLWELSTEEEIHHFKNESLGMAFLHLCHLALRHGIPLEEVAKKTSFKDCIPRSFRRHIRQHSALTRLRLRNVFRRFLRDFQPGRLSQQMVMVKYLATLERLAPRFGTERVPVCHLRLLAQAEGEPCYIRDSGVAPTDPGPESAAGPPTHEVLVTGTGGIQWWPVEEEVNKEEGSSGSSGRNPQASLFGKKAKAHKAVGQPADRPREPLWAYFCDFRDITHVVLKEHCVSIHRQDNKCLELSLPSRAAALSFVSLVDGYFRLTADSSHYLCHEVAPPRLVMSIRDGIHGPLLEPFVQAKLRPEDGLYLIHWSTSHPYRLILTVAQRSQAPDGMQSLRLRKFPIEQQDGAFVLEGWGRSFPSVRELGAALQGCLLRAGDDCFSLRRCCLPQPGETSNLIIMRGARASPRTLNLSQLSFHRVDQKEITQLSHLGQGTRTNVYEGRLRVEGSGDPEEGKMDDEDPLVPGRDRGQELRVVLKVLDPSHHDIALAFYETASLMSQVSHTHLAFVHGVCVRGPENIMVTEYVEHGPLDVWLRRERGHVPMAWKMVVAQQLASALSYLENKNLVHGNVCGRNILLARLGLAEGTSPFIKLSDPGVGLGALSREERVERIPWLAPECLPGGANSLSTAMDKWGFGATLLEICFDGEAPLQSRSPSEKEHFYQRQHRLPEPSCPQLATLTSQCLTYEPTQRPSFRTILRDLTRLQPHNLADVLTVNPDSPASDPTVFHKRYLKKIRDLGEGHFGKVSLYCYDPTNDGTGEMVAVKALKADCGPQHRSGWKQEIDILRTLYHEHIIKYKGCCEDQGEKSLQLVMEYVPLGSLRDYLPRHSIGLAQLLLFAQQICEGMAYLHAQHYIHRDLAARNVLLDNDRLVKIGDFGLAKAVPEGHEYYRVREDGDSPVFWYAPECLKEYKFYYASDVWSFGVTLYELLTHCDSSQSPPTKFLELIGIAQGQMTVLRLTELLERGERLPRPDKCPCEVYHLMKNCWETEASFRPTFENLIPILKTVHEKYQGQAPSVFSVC
UniProt Q6PHR2: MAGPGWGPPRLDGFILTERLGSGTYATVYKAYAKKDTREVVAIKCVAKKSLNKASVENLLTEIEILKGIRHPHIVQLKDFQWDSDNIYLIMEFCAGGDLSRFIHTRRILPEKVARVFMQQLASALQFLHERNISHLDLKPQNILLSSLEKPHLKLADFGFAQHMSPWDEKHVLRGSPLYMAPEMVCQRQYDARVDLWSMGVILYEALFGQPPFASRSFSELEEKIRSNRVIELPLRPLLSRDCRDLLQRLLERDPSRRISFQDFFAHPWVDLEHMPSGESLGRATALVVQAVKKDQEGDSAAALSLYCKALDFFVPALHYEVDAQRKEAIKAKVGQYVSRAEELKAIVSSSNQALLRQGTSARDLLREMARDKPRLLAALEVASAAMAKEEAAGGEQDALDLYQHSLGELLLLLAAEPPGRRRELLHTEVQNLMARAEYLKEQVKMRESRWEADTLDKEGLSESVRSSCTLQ
UniProt P07947, whole entry, looked up: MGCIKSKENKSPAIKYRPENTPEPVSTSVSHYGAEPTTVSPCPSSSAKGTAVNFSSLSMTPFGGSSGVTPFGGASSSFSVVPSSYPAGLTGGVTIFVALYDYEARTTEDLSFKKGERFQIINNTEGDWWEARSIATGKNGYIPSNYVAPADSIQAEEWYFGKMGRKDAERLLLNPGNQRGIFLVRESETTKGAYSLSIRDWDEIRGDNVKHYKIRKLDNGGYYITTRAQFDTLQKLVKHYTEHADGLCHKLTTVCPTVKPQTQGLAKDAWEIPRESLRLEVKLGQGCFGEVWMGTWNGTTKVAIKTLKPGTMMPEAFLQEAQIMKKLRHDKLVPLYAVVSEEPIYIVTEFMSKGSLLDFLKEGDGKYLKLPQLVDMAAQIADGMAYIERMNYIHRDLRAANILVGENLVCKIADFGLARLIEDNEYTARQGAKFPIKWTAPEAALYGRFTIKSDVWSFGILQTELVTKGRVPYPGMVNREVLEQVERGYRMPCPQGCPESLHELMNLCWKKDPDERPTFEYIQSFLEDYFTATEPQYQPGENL
UniProt P43403: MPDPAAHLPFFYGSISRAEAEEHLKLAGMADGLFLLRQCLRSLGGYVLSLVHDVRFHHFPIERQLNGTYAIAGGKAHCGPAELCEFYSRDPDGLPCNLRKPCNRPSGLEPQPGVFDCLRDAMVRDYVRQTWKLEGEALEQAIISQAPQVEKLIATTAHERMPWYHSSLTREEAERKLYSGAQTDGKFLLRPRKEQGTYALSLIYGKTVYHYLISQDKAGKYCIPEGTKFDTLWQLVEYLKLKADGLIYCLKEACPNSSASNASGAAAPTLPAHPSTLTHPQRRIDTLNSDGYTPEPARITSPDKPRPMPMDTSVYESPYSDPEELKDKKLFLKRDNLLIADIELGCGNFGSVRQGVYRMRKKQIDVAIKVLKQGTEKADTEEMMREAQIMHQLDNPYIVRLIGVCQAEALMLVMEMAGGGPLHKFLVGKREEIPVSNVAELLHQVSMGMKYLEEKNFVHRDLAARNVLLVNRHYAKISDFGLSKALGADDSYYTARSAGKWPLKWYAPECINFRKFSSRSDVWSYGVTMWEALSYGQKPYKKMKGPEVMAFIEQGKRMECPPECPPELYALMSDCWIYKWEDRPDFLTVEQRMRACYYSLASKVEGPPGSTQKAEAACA
UniProt P00519, whole entry: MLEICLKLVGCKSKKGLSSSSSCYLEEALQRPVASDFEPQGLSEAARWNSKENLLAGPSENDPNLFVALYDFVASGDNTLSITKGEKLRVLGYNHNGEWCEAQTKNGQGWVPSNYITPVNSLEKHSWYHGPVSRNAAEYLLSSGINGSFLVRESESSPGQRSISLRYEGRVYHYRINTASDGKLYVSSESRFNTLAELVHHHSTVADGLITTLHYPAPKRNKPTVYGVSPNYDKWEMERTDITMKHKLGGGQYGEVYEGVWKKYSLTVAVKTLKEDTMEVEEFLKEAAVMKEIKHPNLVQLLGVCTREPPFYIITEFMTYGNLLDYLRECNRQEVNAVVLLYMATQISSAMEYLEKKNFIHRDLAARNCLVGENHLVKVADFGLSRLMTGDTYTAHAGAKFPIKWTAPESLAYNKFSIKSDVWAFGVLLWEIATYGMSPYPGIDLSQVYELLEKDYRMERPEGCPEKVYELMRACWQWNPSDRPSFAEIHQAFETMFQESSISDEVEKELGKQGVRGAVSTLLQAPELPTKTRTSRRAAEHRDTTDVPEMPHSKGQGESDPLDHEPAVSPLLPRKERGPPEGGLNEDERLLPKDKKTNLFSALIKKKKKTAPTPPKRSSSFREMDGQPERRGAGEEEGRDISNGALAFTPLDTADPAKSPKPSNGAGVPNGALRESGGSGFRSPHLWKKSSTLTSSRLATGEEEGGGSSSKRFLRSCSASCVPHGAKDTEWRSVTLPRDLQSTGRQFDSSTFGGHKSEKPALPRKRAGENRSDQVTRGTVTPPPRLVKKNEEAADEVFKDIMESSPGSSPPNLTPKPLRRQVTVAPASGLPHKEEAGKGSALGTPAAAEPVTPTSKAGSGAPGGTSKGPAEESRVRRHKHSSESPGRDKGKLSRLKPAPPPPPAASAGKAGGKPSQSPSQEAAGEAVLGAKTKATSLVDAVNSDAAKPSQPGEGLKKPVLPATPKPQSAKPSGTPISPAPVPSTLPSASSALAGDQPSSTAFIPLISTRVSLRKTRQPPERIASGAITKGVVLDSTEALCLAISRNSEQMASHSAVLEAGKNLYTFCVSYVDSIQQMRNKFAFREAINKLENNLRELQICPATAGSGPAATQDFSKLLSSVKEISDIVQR
UniProt P31749: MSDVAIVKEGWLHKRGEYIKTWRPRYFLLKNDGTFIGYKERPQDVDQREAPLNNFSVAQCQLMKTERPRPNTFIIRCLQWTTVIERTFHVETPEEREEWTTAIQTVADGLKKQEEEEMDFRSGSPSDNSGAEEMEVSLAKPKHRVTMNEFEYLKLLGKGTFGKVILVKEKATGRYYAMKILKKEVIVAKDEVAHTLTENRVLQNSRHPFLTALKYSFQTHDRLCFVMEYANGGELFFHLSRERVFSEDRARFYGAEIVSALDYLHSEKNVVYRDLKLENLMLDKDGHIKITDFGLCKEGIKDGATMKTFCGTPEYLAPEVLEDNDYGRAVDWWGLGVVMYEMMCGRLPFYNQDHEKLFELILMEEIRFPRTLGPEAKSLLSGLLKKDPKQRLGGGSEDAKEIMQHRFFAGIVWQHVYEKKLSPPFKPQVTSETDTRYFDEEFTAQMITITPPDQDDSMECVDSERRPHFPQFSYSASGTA

How the values were obtained:
Conditions in all cases: K562; 2-18 h
[1] = biological target: STK38 (UniProt Q15208); assay: kinase-Nluc reporter destabilization hit call (1 = scored as downregulated) (binary); higher = compound decreases kinase abundance
[2] = biological target: SYK (UniProt P43405); assay: as above
[3] = biological target: TEC (UniProt P42680); assay: as above
[4] = biological target: TYK2 (UniProt P29597); assay: as above
[5] = biological target: ULK3 (UniProt Q6PHR2); assay: as above
[6] = biological target: YES1 (UniProt P07947); assay: as above
[7] = biological target: ZAK (UniProt Q9NYL2); assay: as above
[8] = biological target: ZAP70 (UniProt P43403); assay: as above
[9] = biological target: ABL1 (UniProt P00519); assay: number of time points (of 5) at which kinase-Nluc abundance scored as decreased, DMSO-normalised (count); higher = more persistent destabilization
[10] = biological target: AKT1 (UniProt P31749); assay: as above

For `CCCCOc1ccc(CC/C=C2\SC(=O)N(CCN)C2=O)cc1` [K145 (hydrochloride)] (2.5 µM), the “kinase-Nluc reporter destabilization hit call” value [1] was inactive: 0, the “kinase-Nluc reporter destabilization hit call” value [2] was inactive: 0 and the “kinase-Nluc reporter destabilization hit call” value [3] was inactive: 0. For the same molecule, the “kinase-Nluc reporter destabilization hit call” value [4] was inactive: 0, the “kinase-Nluc reporter destabilization hit call” value [5] was inactive: 0 and the “kinase-Nluc reporter destabilization hit call” value [6] was inactive: 0. The “kinase-Nluc reporter destabilization hit call” value [7] was inactive: 0, the “kinase-Nluc reporter destabilization hit call” value [8] was inactive: 0 and the “number of time points” value [9] was 0. For the same molecule, the “number of time points” value [10] was 0.
`COc1cc(C(C)=O)cc(OC)c1O` [Acetosyringone] (10 µM) was tested, and the “kinase-Nluc reporter destabilization hit call” value [1] was inactive: 0, the “kinase-Nluc reporter destabilization hit call” value [2] was inactive: 0 and the “kinase-Nluc reporter destabilization hit call” value [3] was inactive: 0. For the same molecule, the “kinase-Nluc reporter destabilization hit call” value [4] was inactive: 0, the “kinase-Nluc reporter destabilization hit call” value [5] was inactive: 0 and the “kinase-Nluc reporter destabilization hit call” value [6] was inactive: 0. The “kinase-Nluc reporter destabilization hit call” value [7] was inactive: 0, the “kinase-Nluc reporter destabilization hit call” value [8] was inactive: 0 and the “number of time points” value [9] was 0. For the same molecule, the “number of time points” value [10] was 0.
`O=C1NCCCc2c1oc1ccc(O)cc21` (10 µM) was tested, and the “kinase-Nluc reporter destabilization hit call” value [1] was inactive: 0, the “kinase-Nluc reporter destabilization hit call” value [2] was inactive: 0 and the “kinase-Nluc reporter destabilization hit call” value [3] was inactive: 0. For the same molecule, the “kinase-Nluc reporter destabilization hit call” value [4] was inactive: 0, the “kinase-Nluc reporter destabilization hit call” value [5] was inactive: 0 and the “kinase-Nluc reporter destabilization hit call” value [6] was inactive: 0. The “kinase-Nluc reporter destabilization hit call” value [7] was inactive: 0, the “kinase-Nluc reporter destabilization hit call” value [8] was inactive: 0 and the “number of time points” value [9] was 0. For the same molecule, the “number of time points” value [10] was 0.
For `Fc1c(Br)cccc1Nc1ncnc2cc3c(cc12)OCCO3` (2.5 µM), the “kinase-Nluc reporter destabilization hit call” value [1] was inactive: 0, the “kinase-Nluc reporter destabilization hit call” value [2] was inactive: 0 and the “kinase-Nluc reporter destabilization hit call” value [3] was inactive: 0. The “kinase-Nluc reporter destabilization hit call” value [4] was inactive: 0, the “kinase-Nluc reporter destabilization hit call” value [5] was inactive: 0 and the “kinase-Nluc reporter destabilization hit call” value [6] was inactive: 0. The “kinase-Nluc reporter destabilization hit call” value [7] was inactive: 0, the “kinase-Nluc reporter destabilization hit call” value [8] was inactive: 0 and the “number of time points” value [9] was 1. The “number of time points” value [10] was 0.
`O=C(Nc1ccc(Cl)c(Cl)c1)Nc1ccc2nnsc2c1` (10 µM) was tested, and the “kinase-Nluc reporter destabilization hit call” value [1] was inactive: 0, the “kinase-Nluc reporter destabilization hit call” value [2] was inactive: 0 and the “kinase-Nluc reporter destabilization hit call” value [3] was inactive: 0. The “kinase-Nluc reporter destabilization hit call” value [4] was inactive: 0, the “kinase-Nluc reporter destabilization hit call” value [5] was inactive: 0 and the “kinase-Nluc reporter destabilization hit call” value [6] was inactive: 0. For the same molecule, the “kinase-Nluc reporter destabilization hit call” value [7] was inactive: 0, the “kinase-Nluc reporter destabilization hit call” value [8] was inactive: 0 and the “number of time points” value [9] was 0. For the same molecule, the “number of time points” value [10] was 0.
For `CSc1ccc(CN2CCCC(Nc3ccc4[nH]ncc4c3)C2)cc1` (stereo not given) [Rho-Kinase-IN-1] (10 µM), the “kinase-Nluc reporter destabilization hit call” value [1] was inactive: 0, the “kinase-Nluc reporter destabilization hit call” value [2] was inactive: 0 and the “kinase-Nluc reporter destabilization hit call” value [3] was inactive: 0. For the same molecule, the “kinase-Nluc reporter destabilization hit call” value [4] was inactive: 0, the “kinase-Nluc reporter destabilization hit call” value [5] was inactive: 0 and the “kinase-Nluc reporter destabilization hit call” value [6] was inactive: 0. For the same molecule, the “kinase-Nluc reporter destabilization hit call” value [7] was inactive: 0, the “kinase-Nluc reporter destabilization hit call” value [8] was inactive: 0 and the “number of time points” value [9] was 0. The “number of time points” value [10] was 0.
`CC(C)c1ccc(CC(=O)N2CCN(c3ccc(C#N)nn3)CC2)cc1` (10 µM) was tested, and the “kinase-Nluc reporter destabilization hit call” value [1] was inactive: 0, the “kinase-Nluc reporter destabilization hit call” value [2] was inactive: 0 and the “kinase-Nluc reporter destabilization hit call” value [3] was inactive: 0. For the same molecule, the “kinase-Nluc reporter destabilization hit call” value [4] was inactive: 0, the “kinase-Nluc reporter destabilization hit call” value [5] was inactive: 0 and the “kinase-Nluc reporter destabilization hit call” value [6] was inactive: 0. For the same molecule, the “kinase-Nluc reporter destabilization hit call” value [7] was inactive: 0, the “kinase-Nluc reporter destabilization hit call” value [8] was inactive: 0 and the “number of time points” value [9] was 0. For the same molecule, the “number of time points” value [10] was 0.
For `COc1ccc2c(c1OC)OC1c3ccc(O)cc3OCC21` (stereo not given) [Methylnissolin] (10 µM), the “kinase-Nluc reporter destabilization hit call” value [1] was inactive: 0, the “kinase-Nluc reporter destabilization hit call” value [2] was inactive: 0 and the “kinase-Nluc reporter destabilization hit call” value [3] was inactive: 0. The “kinase-Nluc reporter destabilization hit call” value [4] was inactive: 0, the “kinase-Nluc reporter destabilization hit call” value [5] was inactive: 0 and the “kinase-Nluc reporter destabilization hit call” value [6] was inactive: 0. For the same molecule, the “kinase-Nluc reporter destabilization hit call” value [7] was inactive: 0, the “kinase-Nluc reporter destabilization hit call” value [8] was inactive: 0 and the “number of time points” value [9] was 0. For the same molecule, the “number of time points” value [10] was 0.
With `C[C@@H]1C[C@H]2O[C@@]3(O[C@@H]2C(C)(C)O)[C@H](O)[C@@]2(C)[C@@H]4CC[C@H]5C(C)(C)[C@@H](O[C@@H]6OC[C@H](O)[C@H](O)[C@H]6O)CC[C@@]56C[C@@]46CC[C@]2(C)[C@@H]13` [Cimiracemoside C] (10 µM) the “kinase-Nluc reporter destabilization hit call” value [1] was inactive: 0, the “kinase-Nluc reporter destabilization hit call” value [2] was inactive: 0 and the “kinase-Nluc reporter destabilization hit call” value [3] was inactive: 0. The “kinase-Nluc reporter destabilization hit call” value [4] was inactive: 0, the “kinase-Nluc reporter destabilization hit call” value [5] was inactive: 0 and the “kinase-Nluc reporter destabilization hit call” value [6] was inactive: 0. The “kinase-Nluc reporter destabilization hit call” value [7] was inactive: 0, the “kinase-Nluc reporter destabilization hit call” value [8] was inactive: 0 and the “number of time points” value [9] was 0. The “number of time points” value [10] was 0.
In the case of `CC(=O)Nc1nc(C)c(-c2nc(N3CCCC(O)C3)no2)s1` (stereo not given) (10 µM), the “kinase-Nluc reporter destabilization hit call” value [1] was inactive: 0, the “kinase-Nluc reporter destabilization hit call” value [2] was inactive: 0 and the “kinase-Nluc reporter destabilization hit call” value [3] was inactive: 0. The “kinase-Nluc reporter destabilization hit call” value [4] was inactive: 0, the “kinase-Nluc reporter destabilization hit call” value [5] was inactive: 0 and the “kinase-Nluc reporter destabilization hit call” value [6] was inactive: 0. The “kinase-Nluc reporter destabilization hit call” value [7] was inactive: 0, the “kinase-Nluc reporter destabilization hit call” value [8] was inactive: 0 and the “number of time points” value [9] was 0. For the same molecule, the “number of time points” value [10] was 0.
For `CN(CC(=O)N(Cc1ccc(C2CCCCC2)cc1)c1ccc(C(=O)O)c(O)c1)S(=O)(=O)c1c(F)c(F)c(F)c(F)c1F` (2.5 µM), the “kinase-Nluc reporter destabilization hit call” value [1] was inactive: 0, the “kinase-Nluc reporter destabilization hit call” value [2] was inactive: 0 and the “kinase-Nluc reporter destabilization hit call” value [3] was inactive: 0. For the same molecule, the “kinase-Nluc reporter destabilization hit call” value [4] was inactive: 0, the “kinase-Nluc reporter destabilization hit call” value [5] was inactive: 0 and the “kinase-Nluc reporter destabilization hit call” value [6] was inactive: 0. The “kinase-Nluc reporter destabilization hit call” value [7] was inactive: 0, the “kinase-Nluc reporter destabilization hit call” value [8] was inactive: 0 and the “number of time points” value [9] was 0. The “number of time points” value [10] was 0.
In the case of `Nc1[nH]c(=O)nc2c1ncn2[C@@H]1O[C@H](CO)[C@@H](O)[C@H]1O` [Crotonoside] (10 µM), the “kinase-Nluc reporter destabilization hit call” value [1] was inactive: 0, the “kinase-Nluc reporter destabilization hit call” value [2] was inactive: 0 and the “kinase-Nluc reporter destabilization hit call” value [3] was inactive: 0. The “kinase-Nluc reporter destabilization hit call” value [4] was inactive: 0, the “kinase-Nluc reporter destabilization hit call” value [5] was inactive: 0 and the “kinase-Nluc reporter destabilization hit call” value [6] was inactive: 0. The “kinase-Nluc reporter destabilization hit call” value [7] was inactive: 0, the “kinase-Nluc reporter destabilization hit call” value [8] was inactive: 0 and the “number of time points” value [9] was 0. The “number of time points” value [10] was 0.
`Nc1cc(C(F)F)c(-c2nc(N3C4CCC3COC4)nc(N3C4CCC3COC4)n2)cn1` (2.5 µM) was tested, and the “kinase-Nluc reporter destabilization hit call” value [1] was inactive: 0, the “kinase-Nluc reporter destabilization hit call” value [2] was inactive: 0 and the “kinase-Nluc reporter destabilization hit call” value [3] was inactive: 0. The “kinase-Nluc reporter destabilization hit call” value [4] was inactive: 0, the “kinase-Nluc reporter destabilization hit call” value [5] was inactive: 0 and the “kinase-Nluc reporter destabilization hit call” value [6] was inactive: 0. For the same molecule, the “kinase-Nluc reporter destabilization hit call” value [7] was inactive: 0, the “kinase-Nluc reporter destabilization hit call” value [8] was inactive: 0 and the “number of time points” value [9] was 0. For the same molecule, the “number of time points” value [10] was 0.
In the case of `CCOc1ccccc1C=C1C(=O)Nc2ccccc21` (10 µM), the “kinase-Nluc reporter destabilization hit call” value [1] was inactive: 0, the “kinase-Nluc reporter destabilization hit call” value [2] was inactive: 0 and the “kinase-Nluc reporter destabilization hit call” value [3] was inactive: 0. The “kinase-Nluc reporter destabilization hit call” value [4] was inactive: 0, the “kinase-Nluc reporter destabilization hit call” value [5] was inactive: 0 and the “kinase-Nluc reporter destabilization hit call” value [6] was inactive: 0. The “kinase-Nluc reporter destabilization hit call” value [7] was inactive: 0, the “kinase-Nluc reporter destabilization hit call” value [8] was inactive: 0 and the “number of time points” value [9] was 2. For the same molecule, the “number of time points” value [10] was 0.
With `C[C@H]1Cc2ccccc2N1C(=O)Cc1nc(N2CCOCC2)cc(=O)[nH]1` (2.5 µM) the “kinase-Nluc reporter destabilization hit call” value [1] was inactive: 0, the “kinase-Nluc reporter destabilization hit call” value [2] was inactive: 0 and the “kinase-Nluc reporter destabilization hit call” value [3] was inactive: 0. For the same molecule, the “kinase-Nluc reporter destabilization hit call” value [4] was inactive: 0, the “kinase-Nluc reporter destabilization hit call” value [5] was inactive: 0 and the “kinase-Nluc reporter destabilization hit call” value [6] was inactive: 0. For the same molecule, the “kinase-Nluc reporter destabilization hit call” value [7] was inactive: 0, the “kinase-Nluc reporter destabilization hit call” value [8] was inactive: 0 and the “number of time points” value [9] was 0. For the same molecule, the “number of time points” value [10] was 0.
